In the supplement of paper PMC7661543:
The effect of the compound repeats well; differences between the knockouts mostly do not.

System: SKBR3
Assay: relative cell number vs DMSO control (72 h) (% of DMSO); higher = less growth inhibition (more cells)
Description: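 QMAP-Seq: a pool of 5 breast cancer cell lines (ZR-75-1, SKBR3, HCC-38, MDA-MB-231, BT-20), each carrying 12 doxycycline-inducible Cas9 sgRNA perturbations (11 knockouts plus non-targeting sgNT), was treated with compounds for 72 h at four 10-fold doses (10 nM-10 uM or 1 nM-1 uM range). Barcodes were amplified and sequenced, and cell number was interpolated from 293T spike-in standard curves. The result is expressed as % of the median of DMSO wells. Two biological replicates.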

c1ccc2c(Oc3nc(Nc4ccc(N5CCOCC5)cc4)c4ncn(C5CCCCC5)c4n3)cccc2c1 [Purmorphamine]
Details	relative cell number
sgRNA knockout: sgATF3, 10 nM	110
sgRNA knockout: sgATF3, 100 nM	97.4
sgRNA knockout: sgATF3, 1000 nM	102
sgRNA knockout: sgATF3, 10000 nM	80.9
sgRNA knockout: sgATF4, 10 nM	90.6
sgRNA knockout: sgATF4, 100 nM	114
sgRNA knockout: sgATF4, 1000 nM	89
sgRNA knockout: sgATF4, 10000 nM	47.5
sgRNA knockout: sgATF6, 10 nM	113
sgRNA knockout: sgATF6, 100 nM	97.2
sgRNA knockout: sgATF6, 1000 nM	92.6
sgRNA knockout: sgATF6, 10000 nM	59.6
sgRNA knockout: sgATG7, 10 nM	92.4
sgRNA knockout: sgATG7, 100 nM	91.7
sgRNA knockout: sgATG7, 1000 nM	107
sgRNA knockout: sgATG7, 10000 nM	84.8
sgRNA knockout: sgERN1, 10 nM	85.7
sgRNA knockout: sgERN1, 100 nM	73.4
sgRNA knockout: sgERN1, 1000 nM	87.9
sgRNA knockout: sgERN1, 10000 nM	53.3
sgRNA knockout: sgHSF1, 10 nM	77.9
sgRNA knockout: sgHSF1, 100 nM	113
sgRNA knockout: sgHSF1, 1000 nM	86.9
sgRNA knockout: sgHSF1, 10000 nM	67.4
sgRNA knockout: sgHSF2, 10 nM	88
sgRNA knockout: sgHSF2, 100 nM	98.8
sgRNA knockout: sgHSF2, 1000 nM	75.5
sgRNA knockout: sgHSF2, 10000 nM	57.6
sgRNA knockout: sgKEAP1, 10 nM	85.1
sgRNA knockout: sgKEAP1, 100 nM	75.4
sgRNA knockout: sgKEAP1, 1000 nM	84.8
sgRNA knockout: sgKEAP1, 10000 nM	68
sgRNA knockout: sgNFE2L2, 10 nM	81.2
sgRNA knockout: sgNFE2L2, 100 nM	93.3
sgRNA knockout: sgNFE2L2, 1000 nM	87.9
sgRNA knockout: sgNFE2L2, 10000 nM	70.3
sgRNA knockout: sgSLC35F2, 10 nM	82.5
sgRNA knockout: sgSLC35F2, 100 nM	84.1
sgRNA knockout: sgSLC35F2, 1000 nM	91.5
sgRNA knockout: sgSLC35F2, 10000 nM	71.9
sgRNA knockout: sgXBP1, 10 nM	87.5
sgRNA knockout: sgXBP1, 100 nM	102
sgRNA knockout: sgXBP1, 1000 nM	108
sgRNA knockout: sgXBP1, 10000 nM	61

CC(C)(C)c1ccc(S(=O)(=O)NCc2ccc(C(=O)Nc3cccnc3)cc2)cc1 [STF31]
Details	relative cell number
sgRNA knockout: sgATF3, 10 nM	119
sgRNA knockout: sgATF3, 100 nM	99
sgRNA knockout: sgATF3, 1000 nM	79.8
sgRNA knockout: sgATF3, 10000 nM	38.2
sgRNA knockout: sgATF4, 10 nM	92.5
sgRNA knockout: sgATF4, 100 nM	84.1
sgRNA knockout: sgATF4, 1000 nM	53.1
sgRNA knockout: sgATF4, 10000 nM	42.03
sgRNA knockout: sgATF6, 10 nM	95.5
sgRNA knockout: sgATF6, 100 nM	77.1
sgRNA knockout: sgATF6, 1000 nM	62.2
sgRNA knockout: sgATF6, 10000 nM	43.4
sgRNA knockout: sgATG7, 10 nM	122
sgRNA knockout: sgATG7, 100 nM	101
sgRNA knockout: sgATG7, 1000 nM	74.4
sgRNA knockout: sgATG7, 10000 nM	33.6
sgRNA knockout: sgERN1, 10 nM	136
sgRNA knockout: sgERN1, 100 nM	90.3
sgRNA knockout: sgERN1, 1000 nM	68.13
sgRNA knockout: sgERN1, 10000 nM	37.1
sgRNA knockout: sgHSF1, 10 nM	83.7
sgRNA knockout: sgHSF1, 100 nM	90.4
sgRNA knockout: sgHSF1, 1000 nM	61.9
sgRNA knockout: sgHSF1, 10000 nM	43.2
sgRNA knockout: sgHSF2, 10 nM	112
sgRNA knockout: sgHSF2, 100 nM	91
sgRNA knockout: sgHSF2, 1000 nM	63.6
sgRNA knockout: sgHSF2, 10000 nM	40.8
sgRNA knockout: sgKEAP1, 10 nM	95.4
sgRNA knockout: sgKEAP1, 100 nM	80.8
sgRNA knockout: sgKEAP1, 1000 nM	65
sgRNA knockout: sgKEAP1, 10000 nM	34.7
sgRNA knockout: sgNFE2L2, 10 nM	117
sgRNA knockout: sgNFE2L2, 100 nM	91.3
sgRNA knockout: sgNFE2L2, 1000 nM	65.3
sgRNA knockout: sgNFE2L2, 10000 nM	38.96
sgRNA knockout: sgSLC35F2, 10 nM	98.7
sgRNA knockout: sgSLC35F2, 100 nM	87.7
sgRNA knockout: sgSLC35F2, 1000 nM	65.6
sgRNA knockout: sgSLC35F2, 10000 nM	46
sgRNA knockout: sgXBP1, 10 nM	117
sgRNA knockout: sgXBP1, 100 nM	91.5
sgRNA knockout: sgXBP1, 1000 nM	61.57
sgRNA knockout: sgXBP1, 10000 nM	52.8

CN1CCN(CCOc2cc(OC3CCOCC3)c3c(Nc4c(Cl)ccc5c4OCO5)ncnc3c2)CC1 [Saracatinib]
Details	relative cell number
sgRNA knockout: sgATF3, 10 nM	91.3
sgRNA knockout: sgATF3, 100 nM	77.2
sgRNA knockout: sgATF3, 1000 nM	80.1
sgRNA knockout: sgATF3, 10000 nM	41.5
sgRNA knockout: sgATF4, 10 nM	84.9
sgRNA knockout: sgATF4, 100 nM	96.1
sgRNA knockout: sgATF4, 1000 nM	84.5
sgRNA knockout: sgATF4, 10000 nM	39.1
sgRNA knockout: sgATF6, 10 nM	84.8
sgRNA knockout: sgATF6, 100 nM	81.7
sgRNA knockout: sgATF6, 1000 nM	86.5
sgRNA knockout: sgATF6, 10000 nM	40.5
sgRNA knockout: sgATG7, 10 nM	88.6
sgRNA knockout: sgATG7, 100 nM	106
sgRNA knockout: sgATG7, 1000 nM	85.8
sgRNA knockout: sgATG7, 10000 nM	41.9
sgRNA knockout: sgERN1, 10 nM	84.5
sgRNA knockout: sgERN1, 100 nM	91.5
sgRNA knockout: sgERN1, 1000 nM	86.3
sgRNA knockout: sgERN1, 10000 nM	52.3
sgRNA knockout: sgHSF1, 10 nM	75.8
sgRNA knockout: sgHSF1, 100 nM	84.9
sgRNA knockout: sgHSF1, 1000 nM	73.8
sgRNA knockout: sgHSF1, 10000 nM	30.1
sgRNA knockout: sgHSF2, 10 nM	83
sgRNA knockout: sgHSF2, 100 nM	94.4
sgRNA knockout: sgHSF2, 1000 nM	77.4
sgRNA knockout: sgHSF2, 10000 nM	44.3
sgRNA knockout: sgKEAP1, 10 nM	89.2
sgRNA knockout: sgKEAP1, 100 nM	79.3
sgRNA knockout: sgKEAP1, 1000 nM	96.4
sgRNA knockout: sgKEAP1, 10000 nM	38.9
sgRNA knockout: sgNFE2L2, 10 nM	74.2
sgRNA knockout: sgNFE2L2, 100 nM	103
sgRNA knockout: sgNFE2L2, 1000 nM	73.8
sgRNA knockout: sgNFE2L2, 10000 nM	46.2
sgRNA knockout: sgSLC35F2, 10 nM	81.8
sgRNA knockout: sgSLC35F2, 100 nM	76.3
sgRNA knockout: sgSLC35F2, 1000 nM	81.3
sgRNA knockout: sgSLC35F2, 10000 nM	40.6
sgRNA knockout: sgXBP1, 10 nM	93.4
sgRNA knockout: sgXBP1, 100 nM	84.2
sgRNA knockout: sgXBP1, 1000 nM	79
sgRNA knockout: sgXBP1, 10000 nM	44.8
